Measurements from PMC4659838.
These are yes or no findings as the source states them, for the method shown. Binding seen in cells or lysates may run through a third protein. Some entries that bind do so weakly or less than the wild type.

The chains behind the UniProt entries cited, without tags or fusion partners.
UniProt O95817: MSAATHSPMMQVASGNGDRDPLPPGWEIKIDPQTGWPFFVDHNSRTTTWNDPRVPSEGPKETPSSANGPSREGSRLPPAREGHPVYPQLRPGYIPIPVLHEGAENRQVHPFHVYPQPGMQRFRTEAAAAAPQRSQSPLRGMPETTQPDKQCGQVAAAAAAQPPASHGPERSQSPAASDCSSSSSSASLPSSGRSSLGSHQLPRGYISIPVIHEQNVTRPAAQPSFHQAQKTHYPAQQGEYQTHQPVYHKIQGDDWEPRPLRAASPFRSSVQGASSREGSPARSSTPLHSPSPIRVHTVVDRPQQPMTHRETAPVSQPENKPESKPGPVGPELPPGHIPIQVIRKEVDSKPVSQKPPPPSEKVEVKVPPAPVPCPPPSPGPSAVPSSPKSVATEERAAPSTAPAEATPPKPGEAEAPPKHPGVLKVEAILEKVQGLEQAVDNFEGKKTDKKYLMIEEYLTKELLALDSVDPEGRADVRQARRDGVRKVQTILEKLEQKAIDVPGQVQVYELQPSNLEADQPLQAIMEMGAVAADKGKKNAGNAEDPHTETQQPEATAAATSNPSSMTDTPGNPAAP

Molecular target: T1, IFITM-2 (Interferon-Induced Transmembrane Protein 2) (mouse (endogenous in J774.A1)) (UniProt Q99J93)
T1 sequence: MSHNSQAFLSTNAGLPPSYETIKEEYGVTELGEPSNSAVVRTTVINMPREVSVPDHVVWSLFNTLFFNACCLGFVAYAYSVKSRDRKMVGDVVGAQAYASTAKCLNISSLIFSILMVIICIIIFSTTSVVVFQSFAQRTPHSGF
Assay: co-IP; J774.A1 macrophages incubated with His-tagged rBAG3; plasma membrane complexes extracted natively with 1% CALX173ACE; immuno-affinity chromatography on anti-IFITM-2 agarose resin; rBAG3 monitored by western blot; macrophages not incubated with rBAG3 as negative control; only the binder purified

- binding: binds
Substance: His-tagged recombinant BAG3 (Bcl-2-associated athanogene 3) (from UniProt O95817 1-575)
